Paper PMC9666630
Results are given in words; binding and its absence hold for the method and conditions named. Binding seen in cells or lysates may run through a third protein. Some entries that bind do so weakly or less than the wild type. Sequences can lack the tags named with a protein. One block for each binder: values may come before it.

Target: T1, HIRA-3xHA (pHIRA::HIRA-3xHA complementing line) (Arabidopsis thaliana) (UniProt Q9LXN4)
T1 sequence: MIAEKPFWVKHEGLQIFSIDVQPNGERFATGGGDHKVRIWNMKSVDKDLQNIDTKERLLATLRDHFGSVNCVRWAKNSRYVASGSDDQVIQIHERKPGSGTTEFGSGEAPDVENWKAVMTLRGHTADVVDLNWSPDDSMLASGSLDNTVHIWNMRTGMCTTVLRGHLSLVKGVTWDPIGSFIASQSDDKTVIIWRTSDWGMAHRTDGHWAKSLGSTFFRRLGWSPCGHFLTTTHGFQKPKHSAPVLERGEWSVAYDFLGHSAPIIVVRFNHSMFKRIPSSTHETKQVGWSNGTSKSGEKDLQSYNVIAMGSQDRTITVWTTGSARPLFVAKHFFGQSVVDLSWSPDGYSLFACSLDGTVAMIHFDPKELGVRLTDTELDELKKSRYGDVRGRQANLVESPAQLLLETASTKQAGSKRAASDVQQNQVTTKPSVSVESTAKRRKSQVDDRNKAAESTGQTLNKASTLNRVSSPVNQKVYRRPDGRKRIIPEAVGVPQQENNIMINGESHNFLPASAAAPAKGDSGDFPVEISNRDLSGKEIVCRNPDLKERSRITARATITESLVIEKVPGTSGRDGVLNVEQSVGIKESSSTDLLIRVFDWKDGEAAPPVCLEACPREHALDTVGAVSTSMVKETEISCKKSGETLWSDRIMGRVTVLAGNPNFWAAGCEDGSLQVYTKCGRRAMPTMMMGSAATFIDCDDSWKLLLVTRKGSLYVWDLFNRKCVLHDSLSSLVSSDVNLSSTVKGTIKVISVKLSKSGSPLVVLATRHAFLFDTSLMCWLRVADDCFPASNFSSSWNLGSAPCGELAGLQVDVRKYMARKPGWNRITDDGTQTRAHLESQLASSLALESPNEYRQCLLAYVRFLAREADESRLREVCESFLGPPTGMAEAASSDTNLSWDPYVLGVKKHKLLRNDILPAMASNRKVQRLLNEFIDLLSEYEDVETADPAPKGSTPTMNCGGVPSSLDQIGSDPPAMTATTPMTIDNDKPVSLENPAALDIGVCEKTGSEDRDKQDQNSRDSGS
Test: co-IP; 2 g young inflorescence tissue; anti-HA antibodies coupled to magnetic beads (HIRA-3xHA line); western blot with HRP anti-Myc tag antibody

binding: binds
B1: ASF1B-9xMyc-BLRP (pASF1B::ASF1B-9xMyc-BLRP complementing line) (protein, UniProt Q9LS09 1-218)
chain: MSSINITNVTVLDNPAPFVNPFQFEISYECLTSLKDDLEWKLIYVGSAEDETYDQVLESVLVGPVNVGNYRFVLQADSPDPLKIREEDIIGVTVLLLTCSYMDQEFIRVGYYVNNDYDDEQLREEPPTKVLIDKVQRNILTDKPRVTKFPINFHPENEQTLGDGPAPTEPFADSVVNGEAPVFLEQPQKLQEIEQFDDSDVNGEAIALLDQPQNLQET

binding: binds
B2: ASF1A-9xMyc (complementing line) (protein, UniProt Q9C9M6 1-196)
chain: MSAIKITNVAVLHNPAPFVSPFQFEISYECLNSLKDDLEWKLIYVGSAEDETYDQLLESVLVGPVNVGNYRFVFQADPPDPSKIQEEDIIGVTVLLLTCSYMGQEFLRVGYYVNNDYEDEQLKEEPPTKVLIDKVQRNILSDKPRVTKFPIDFHPEEEQTAATAAPPEQSDEQQPNVNGEAQVLPDQSVEPKPEES
